# Test results: the supplement of paper PMC3334620
# In all, about 33,000 sequences were measured (“E-score (-0.5 to 0.5)”: median about -8e-05, highest 2% from about 0.23 on). The list shows a part of the results.
# Target: T1, Nrg2 (UniProt P38082)
# T1 sequence: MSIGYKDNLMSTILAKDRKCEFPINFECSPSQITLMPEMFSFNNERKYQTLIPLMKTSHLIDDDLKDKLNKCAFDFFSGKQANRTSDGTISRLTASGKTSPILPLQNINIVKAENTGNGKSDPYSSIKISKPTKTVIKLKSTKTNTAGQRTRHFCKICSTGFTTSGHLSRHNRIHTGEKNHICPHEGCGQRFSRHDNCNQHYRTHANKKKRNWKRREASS
# Assay: PBM E-score (8-mer binding enrichment) (E-score (-0.5 to 0.5)); higher = stronger / more preferred TF binding
# Details: protein concentration: 100 nM; construct: GST-full length
# Method in brief: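 Detection of bound protein used fluorescent anti-GST, with scans normalised by masliner. The proteins were GST-tagged yeast transcription factors applied at about 100-200 nM to universal all-10-mer Agilent arrays made double-stranded by primer extension. Each ungapped eight-base word, pooled with its reverse complement, was scored with an E-score from the Universal PBM Analysis Suite.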
row,Sequence,PBM E-score
1,AGCCTTGG,-0.0947
2,CAACCAGA,0.098
3,AACTAGTA,0.107
4,AGAATACT,0.0471
5,AAGTGTCC,0.00599
6,AACGAGTT,-0.139
7,CAACTAAA,0.126
8,ATGTATGA,0.144
9,GCACTCTA,0.0909
10,GCCATCAC,-0.0887
11,CCCATTGA,-0.0927
12,CGAGGCTA,-0.133
13,CAAGTAAC,0.0558
14,GCAAACAA,0.193
15,AGTCAAAC,-0.119
16,CAACGTTG,0.0615
17,GGCGTCCA,-0.12
18,AATTCGGA,0.152
19,CTCGTTAA,-0.0264
20,ACGTTTAA,0.162
21,ATCTTTGC,0.133
22,GCTTTACA,-0.0981
23,ACATAGGG,0.104
24,GATAAACA,0.0987
25,CGGATCAG,-0.0432

row,Sequence,PBM E-score
1,CAACATCG,0.11
2,ACGGGTAT,0.0644
3,GGCAACTA,0.194
4,AGCCAACG,-0.0609
5,CCTCGAGC,0.267
6,CAGAACAA,0.223
7,GACATATC,0.0718
8,AGCGAACT,0.0473
9,CCAGGGCA,0.175
10,CCCAGGAG,-0.225
11,ATAAGGTC,0.206
12,AGTACTTA,-0.0757
13,ACGGGATA,0.0878
14,GCAACTTA,0.1
15,CCCTCGAA,-0.126
16,CATAGCCG,-0.0321
17,ACCACTAC,-0.106
18,GTGCTAAA,-0.0358
19,TCGGAAAA,0.0848
20,AGTTCGAC,0.0275
21,CGTGCACA,-0.129
22,AATGACCA,0.154
23,ATGCATTC,0.1
24,GCTCCGCA,-0.0443
25,CCATACCG,0.00784

row,Sequence,PBM E-score
1,ATAGGGCA,-0.0243
2,AACAGCAT,0.0901
3,GACCGTCA,-0.0505
4,GCATGACC,-0.122
5,AGTACCTA,0.0211
6,TATGAATA,0.142
7,CACTTTCA,0.00493
8,GTAAACAC,-0.0176
9,AGTTAACA,0.166
10,GACGCCGA,0.15
11,GCCGGGAC,-0.264
12,CCACCAGC,-0.0443
13,AGGAGCGG,-0.236
14,AAGGCCAC,-0.0803
15,GGAGGTAC,-0.177
16,ATGCCACA,0.0993
17,CCCCATTC,0.0034
18,TAATCATA,0.0364
19,CGAGTTCC,0.0649
20,GAAACTGC,-0.0363
21,CGAATTAC,-0.0465
22,GCCCGCTA,-0.233
23,TGATGACA,0.0593
24,TCCCGCGA,0.066
25,GGCGAACC,0.086

row,Sequence,PBM E-score
1,CAAAACTC,0.0587
2,CGCCGTAG,0.0232
3,GAGATATC,0.282
4,ACTTATGC,0.0733
5,AGAGAGCA,-0.117
6,CGATACAA,0.162
7,TTAACAAA,0.094
8,ACCAATAC,0.167
9,GCGTCGCA,-0.0916
10,CACAAATA,0.164
11,CCGCGCGG,0.368
12,CGGGTCCA,0.0193
13,AGGGTGCG,0.0103
14,ACAATACA,0.148
15,ACTAGTGG,0.123
16,AGTCTGTC,-0.0879
17,AGGTGTGA,-0.0848
18,AGAGACGG,-0.0426
19,ATAGCAAC,0.0732
20,AAGAGGGA,-0.0301
21,TCGCCGCA,0.0795
22,CGACGCAA,0.0136
23,ACAGAGAG,-0.115
24,AGCGTCGG,-0.0319
25,TAATACCA,0.178

row,Sequence,PBM E-score
1,AACTTCTA,0.0496
2,CCAGTTTA,0.0365
3,ACGAGACC,0.043
4,CGCAGGCG,-0.167
5,CCTCGTAA,0.216
6,AGCGATAG,-0.11
7,CCATGTTA,0.0626
8,TAGGCGAA,0.00515
9,AGGACCTA,0.114
10,AACAACGA,-0.0427
11,CAGGGCGG,-0.0602
12,AATGACAA,0.189
13,AGGTCACA,-0.0671
14,GCGGTCAC,-0.0959
15,AACCGCTA,-0.0673
16,CGTCAAAC,-0.102
17,ATCAATAA,0.165
18,AAGTCGAA,-0.112
19,CGCTGCGC,-0.145
20,CTTTGAAA,0.0384
21,TCAGTCCA,-0.209
22,GCTGTCCA,0.109
23,AAGCTAGT,0.0156
24,AACCAATT,0.176
25,CCAGTTCC,0.00517

row,Sequence,PBM E-score
1,TATAGCCA,0.146
2,CGGCAGTC,-0.121
3,CGGCGGCA,-0.0877
4,TCCGGCCA,0.00685
5,ATCTCGCC,0.0341
6,CGCATCAC,-0.173
7,ATACGTTG,0.0382
8,TAATTTGA,0.00012
9,CATGTCGA,-0.00093
10,TACTTATA,-0.0612
11,AAAGATCT,-0.00505
12,AAACCTTT,-0.211
13,CGTCCTAC,-0.0299
14,TCCTTACA,-0.129
15,AGTTACAA,0.187
16,ATAGTAAT,0.234
17,AGACCAGG,-0.0228
18,CAAGGGGG,-0.247
19,CCGTACAC,0.0707
20,ATCTGGAA,0.155
21,AAGTGTGA,-0.0785
22,GCCACGCA,-0.207
23,ACGAAGCC,-0.0825
24,GACCACGA,0.11
25,ATGACGTG,0.0659

row,Sequence,PBM E-score
1,CACGCGTA,-0.0726
2,CTGTACCA,-0.114
3,AATGCTGC,0.0363
4,ACACTAAG,-0.0286
5,TCTATGCA,-0.0741
6,GGAAAAAC,-0.00565
7,GTGCTAGA,-0.167
8,GCAGTGAC,-0.0115
9,GGCATTCA,0.0471
10,GACGGCGC,-0.0822
11,AACTAGAT,0.029
12,AGCGCAAA,0.136
13,GAACATCC,0.123
14,CCCATACC,-0.023
15,TACAGGTA,-0.0586
16,CTGTCTCC,-0.0284
17,ACGCTCCT,-0.157
18,AAATCACT,0.124
19,AGCGCATC,-0.0236
20,TGCTGAAA,-0.129
21,ATGCCATG,0.0663
22,CATCGCGG,-0.0493
